Experimental data taken from PubChem BioAssay AID1273 (Columbia University Molecular Screening Center, 2008).
Some of the results follow. These are further read-outs of the screen, such as a control signal, another cell line or another target. No call is given for them. Compounds called inactive in the main read-out are mostly missing here.

Test: insulin gene promoter suppression in islet cells – imaging, TRM-6 cells (human fetal islet line), eGFP reporter, cell count, primary screen (AID 1273;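 note: cells exposed to compound for 48 h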)
Settings: measured here: cell count, toxicity, at 2 µM, reporter expression induced with tamoxifen

| SMILES | normalized cell count [%] |
| --- | --- |
| Nc1c(C(=O)Nc2ccccc2)sc2nc(-c3ccco3)ccc12 | 52 |
| CC(C)CC(=O)NCCCN1CCN(CCCNC(=O)CC(C)C)CC1 | 114 |
| COc1ccc(C)cc1NC(=O)CSc1nnc(CC(=O)Nc2ccccc2C)n1C | 50.6 |
| COc1cc(/C=N/NC(=O)c2ccc(-n3cccc3)cc2)ccc1O | 79.4 |
| Cc1cnc(C(=O)OCC(=O)NCCCc2ccccc2)cn1 | 75.3 |
| N=c1sccn1CC(=O)NC(=O)NC1CCCC1 | 92.7 |
| COC(=O)C1=C(C)NC(=S)N(C(C)=O)C1c1ccccc1 (stereo not given) | 29.3 |
| COc1ccc(C(=O)NC(Nc2ccccc2)C(Cl)(Cl)Cl)cc1 (stereo not given) | 84 |
| CC(C)(C)NC(=O)/C=C/c1cccc(C(F)(F)F)c1 | 149 |
| Cc1onc(-c2ccccc2Cl)c1C(=O)Nc1cccc(-c2nc3ncccn3c2C)c1 | 118 |
| COc1ccc(Oc2nnnn2-c2ccccc2)cc1 | 116 |
| Cc1cccc2sc(NNC(=O)c3ccc(S(=O)(=O)N4CCc5ccccc5C4)cc3)nc12 | 103 |
| Clc1cccc(Cl)c1/C=C/c1nc2ccccc2[nH]1 | 104 |
| Cn1c(N)c(C(=O)COC(=O)C2CCCN2C(=O)c2cccs2)c(=O)n(C)c1=O (stereo not given) | 116 |
| COc1ccc(Cl)cc1NC(=O)c1cnc2sccn2c1=O | 53.7 |
| CC(=O)NC1C(=O)SC1(C)C (stereo not given) | 154 |
| C=CC[N+](C)(C)C/C(Cl)=C(\Cl)c1ccccc1 | 15.8 |
| CNC(=O)CSCc1c(F)cccc1Cl | 84.2 |
| Cc1cccc(CSCCNC(=O)c2ccc(CN3CCOCC3)cc2)c1 | 84.8 |
| Cc1c(C(=O)Nc2ccc(F)cc2)oc2ccc(S(=O)(=O)N3CC(C)CC(C)C3)cc12 (stereo not given) | 39.7 |
| CC(=O)c1ccc(Nc2nc(=O)c3cccnc3s2)cc1 | 111 |
| O=C(COC(=O)c1ccc(NS(=O)(=O)c2ccc3c(c2)OCCO3)cc1)NC1CC1 | 91.1 |
| CC[C@@H](C)[C@H](NC(=O)OC(C)(C)C)c1nnc(S(=O)(=O)Cc2cc(C)ccc2C)o1 | 56 |

Quoted from the entries so far, three compounds:

| SMILES | normalized cell count [%] |
| --- | --- |
| CC(C)(C)NC(=O)/C=C/c1cccc(C(F)(F)F)c1 | 149 |
| Cc1onc(-c2ccccc2Cl)c1C(=O)Nc1cccc(-c2nc3ncccn3c2C)c1 | 118 |
| COc1ccc(Oc2nnnn2-c2ccccc2)cc1 | 116 |

Remaining list, next part:

| SMILES | normalized cell count [%] |
| --- | --- |
| Cc1ccc(S(=O)(=O)CC(=O)Nc2ccc(Cl)cn2)cc1 | 121 |
| COC(=O)CC(NS(=O)(=O)c1cccs1)c1ccccc1Cl (stereo not given) | 155 |
| CCCc1nc2ccccc2[nH]1 | 109 |
| O=C(Nc1ccc2c(c1)OCCO2)N1CCOCC1 | 98.7 |
| CSc1ccc(OC2CCCCC2NS(=O)(=O)c2ccc(Cl)cc2)cc1 (stereo not given) | 0 |
| CC1=C(C(=O)Nc2ccc(Br)cc2)C(c2ccco2)NC(=O)N1 (stereo not given) | 44 |
| Cc1nn(CCC(=O)NNC(=S)Nc2ccc([N+](=O)[O-])cc2)c(C)c1[N+](=O)[O-] | 120 |
| CCCCC1NC(C(=O)O)CS1 (stereo not given) | 117 |
| CCCNC(=O)CN1C(=O)NC(CCc2ccccc2)C1=O (stereo not given) | 81.1 |
| COc1ccc(N2CCN(C(=O)CSc3ncnc4c3cnn4-c3ccccc3C)CC2)cc1 | 118 |
| Cc1ccc2cc3c(NC(=O)c4ccco4)nn(C)c3nc2c1 | 155 |
| N#Cc1c(-n2cccc2/C=N/O)sc2c1CCCC2 | 127 |
| COc1cc(C(=O)N(Cc2ccc(N(C)C)cc2)C2CCS(=O)(=O)C2)cc(OC)c1OC (stereo not given) | 128 |
| CCc1nc(NCCN2CCOCC2)c2oc3ccccc3c2n1 | 106 |
| O=C(OCC(=O)N1CCCc2ccccc21)c1ccc(Cl)nc1 | 51.5 |
| Cc1c(C#N)c(O)n(C)c(=O)c1N=Nc1ccc(S(N)(=O)=O)cc1 | 129 |
| COC(=O)c1cscc1NC(C)=O | 85.8 |
| CC1OC23CCCCC2C(C#N)(C(=N)O3)C1(C#N)C#N (stereo not given) | 91.8 |
| CCCNC(=O)Cn1nc(C(F)(F)F)c2c1CCC2 | 125 |
| Cc1nc2cc(NC(=O)N(C)c3ccc4ccccc4c3)ccc2o1 | 30.2 |
| Cc1cccc(OCc2n[nH]c(=S)n2C2CCCCC2)c1 | 109 |
| O=C(CSC1=Nc2ccccc2C2CC=NN12)Nc1ccc2c(c1)OCO2 (stereo not given) | 67.4 |
| O=C(NCc1ccc2c(c1)OCO2)c1ccc(CN2CCOCC2)cc1 | 40.7 |

| SMILES | normalized cell count [%] |
| --- | --- |
| CCOC(=O)N1CCC(N2CCN(S(=O)(=O)c3ccc(C)cc3)CC2)CC1 | 62 |
| COC(=O)c1ccc(-c2cc(C(=O)O)c3cc4c(cc3n2)OCCO4)cc1 | 126 |
| CC(C)C(=O)c1cc2c(cc1NC(=O)c1ccccc1)OCCO2 | 125 |
| O=C(CSc1nc2c(sc3ccccc32)c(=O)n1-c1ccccc1)NCc1ccco1 | 81.9 |
| O=C(NC(=S)Nc1ccc(S(=O)(=O)Nc2nccs2)cc1)c1cccc(F)c1 | 94.1 |
| O=C(O)C1CC=CCC1C(=O)c1ccccc1 (stereo not given) | 111 |
| Cc1ccc(/C(=N\O)c2oc3c(C)c4oc(=O)cc(C)c4cc3c2C)cc1 | 121 |
| Nc1cc(C(=O)O)c(Oc2ccc(Cl)cc2Cl)cc1C(=O)O | 138 |
| Cc1ccc(C(c2nnnn2CS(=O)(=O)c2ccc(C)cc2)N2CCN(c3ncccn3)CC2)cc1 (stereo not given) | 94.2 |
| COc1cc(/C=N/NC(=O)c2ccncc2)ccc1OC(=O)c1ccc([N+](=O)[O-])cc1 | 0.79 |
| Cc1nc(-c2ccc(NS(C)(=O)=O)cc2)cs1 | 46 |
| O=C(O)CCC(=O)Nc1sc2c(c1C(=O)Nc1cccc3ccccc13)CCCCC2 | 88.6 |
| CCCCN(C)C1=Nc2cccc3cccc1c23 | 126 |
| O=C(Nc1ccc(C(=O)O)cc1)/C(=C\c1ccc2c(c1)OCO2)NC(=O)c1ccccc1 | 93.1 |
| Cc1noc(C)c1CSc1nnc(C)c(=O)[nH]1 | 32.9 |
| Cc1nn(C)c(C)c1CNC(=O)/C=C/c1ccccc1F | 110 |
| Cc1nnc(SCC(=O)c2ccc(Cl)cc2)s1 | 122 |
| COc1ccc(/C=N/OCC(=O)N=Nc2c(O)[nH]c3ccc(Br)cc23)cc1 | 109 |
| On1c(-c2ccc(Cl)cc2)nc2ccccc21 | 172 |
| COC(=O)c1cc(NC(=O)c2ccc(Cn3cc(Cl)cn3)o2)cc(C(=O)OC)c1 | 51.6 |
| O=C(Nc1ccc([N+](=O)[O-])cn1)C1CC2CCC1C2 (stereo not given) | 120 |
| O=C(NCc1ccco1)c1cc2ccc(O)cc2oc1=O | 52.5 |
| COc1ccc2ccccc2c1CN1CCN(Cc2ccccc2)CC1 | 52.1 |

| SMILES | normalized cell count [%] |
| --- | --- |
| C=CCn1c(SCC(=O)N2CCN(c3ccccc3)CC2)nnc1-c1ccco1 | 77.4 |
| Cc1ccc(CN2CCN(/N=C/C=C/c3ccccc3[N+](=O)[O-])CC2)cc1 | 94.2 |
| CC(C)=C1SC(N2CCN(c3ccc(Cl)cc3)CC2)=NC1=O | 108 |
| O=C1CC(C(=O)Nc2ccc(C(=O)N3CCOCC3)cc2)C2(CCCCC2)O1 (stereo not given) | 105 |
| O=C(Nn1cnnc1)c1cc2c(s1)CCCCC2 | 110 |
| C/C(Cn1nc([N+](=O)[O-])cc1C)=N\NC(=O)c1ccc(C(C)(C)C)cc1 | 92.2 |
| CN(CC(=O)N1CCCCC1)S(=O)(=O)c1cccc2cccnc12 | 53.7 |
| c1ccc2c(c1)[nH]c1c(N3CCSCC3)ncnc12 | 140 |
| N#Cc1c(-c2ccco2)nc(NCC2CCCO2)[nH]c1=O (stereo not given) | 125 |
| Cc1ccccc1Nc1nc(CSc2nnnn2-c2ccccc2)cs1 | 64 |
| Cc1cc(Oc2ccc(=O)n(C)n2)nc(Oc2ccc(=O)[nH]n2)n1 | 93.8 |
| CCSc1cnc(-c2ccccc2)n1CC | 166 |
| CCOC(=O)N1CCN(C(=O)C2c3cc(OC)c(OC)cc3C(=O)N3CCc4ccccc4C23)CC1 (stereo not given) | 130 |
| Cc1nc(NC(=O)c2ccccc2)sc1-c1csc(NCCc2ccccc2)n1 | 124 |
| CCOC(=O)c1c(/N=C/N(C)C)sc(C(=O)OC)c1C | 107 |
| Cc1cc(C)n(C(=O)c2ccc(NC(=O)CC(C)C)cc2)n1 | 38.4 |
| Cc1ccc(-c2c3c([nH]c(=S)c2C#N)CCCC3)o1 | 143 |
| O=c1[nH]n2c(C(F)(F)F)cc(C3CC3)nc2c1N=Nc1ccccc1 | 79.7 |
| O=C(COc1ccccc1)N1c2ccccc2Sc2ccccc21 | 109 |
| O=C(Cn1cnc2c(oc3ccccc32)c1=O)NCc1ccco1 | 69.5 |
| COc1cc(OC)cc(C(=O)OCc2cc3ccccc3[nH]c2=O)c1 | 71.2 |
| c1ccc(-c2csc3ncnc(NCCN4CCOCC4)c23)cc1 | 87.2 |
| CC(C)CCNC(=O)c1c[nH]c2ccc(S(=O)(=O)N3CCC4(CC3)OCCO4)cc2c1=O | 95.9 |

Some of the entries above in another layout.
CN(CC(=O)N1CCCCC1)S(=O)(=O)c1cccc2cccnc12
  normalized cell count [%]: 53.7
c1ccc2c(c1)[nH]c1c(N3CCSCC3)ncnc12
  normalized cell count [%]: 140
N#Cc1c(-c2ccco2)nc(NCC2CCCO2)[nH]c1=O (stereo not given)
  normalized cell count [%]: 125
Cc1ccccc1Nc1nc(CSc2nnnn2-c2ccccc2)cs1
  normalized cell count [%]: 64

Following part.

| SMILES | normalized cell count [%] |
| --- | --- |
| Cc1ccc2[nH]c3c(=O)n(N)c(C)nc3c2c1 | 178 |
| Nc1cccnc1Sc1cc(Cl)cc(Cl)c1 | 136 |
| Cc1cccc(NC(=O)c2ccccc2NC(=O)CCC(=O)O)c1 | 52.1 |
| Cc1nc2sc(C(=O)OC(C)C)c(N)c2c(C)c1C | 176 |
| COc1ccc(-c2cn3ccc4ccccc4c3n2)cc1 | 72.8 |
| COc1ccc(N(C)S(=O)(=O)c2cccc(C(=O)Nc3nc4ccccc4[nH]3)c2)cc1 | 86.6 |
| Cc1cc(C)n2c(SCc3c(C)noc3C)nnc2n1 | 53.9 |
| CC1(C)Cc2c(sc3nc[nH]c(=O)c23)CO1 | 63.1 |
| NC(=O)c1ccccc1N/C=C/C(=O)c1ccc(Cl)cc1Cl | 86.7 |
| Nc1c(-c2cccc([N+](=O)[O-])c2)nc2ccccn12 | 137 |
| Cc1cccc(N2CCc3c2nc2ccc(Br)cc2c3N)c1 | 121 |
| COc1ccc2[nH]c3c(NCCC4=CCCCC4)ncnc3c2c1 | 133 |
| O=C(O)Cn1cc(C(=O)c2cccs2)c2ccccc21 | 131 |
| COc1ccc(-c2nnn(CCc3nn[nH]n3)n2)cc1 | 111 |
| Cc1cc(C(=O)Oc2cccnc2)ccc1[N+](=O)[O-] | 113 |
| CCOc1ccccc1C(=O)Nc1nnc(CC)s1 | 99.7 |
| CCC(=O)Nc1ccc2nc(C)n(CC(=O)Nc3ccccc3)c(=O)c2c1 | 117 |
| Cc1nn2c(nc1=O)SCC(c1ccccc1)=N2 | 98.6 |
| CC(=O)Nc1ccc(Nc2cc(C)nc3c(-c4ccccc4)cnn23)cc1 | 201 |
| O=C(NCCc1ccccc1)C(c1cccs1)N(C(=O)CCl)c1ccc(Cl)cc1 (stereo not given) | 0 |
| CCc1nnc2c3cnn(-c4ccccc4)c3ncn12 | 66.1 |
| Cc1snc(S(=O)(=O)/C(C#N)=N/Nc2cccc(C(F)(F)F)c2)c1C#N | 43.3 |
| c1ccc2c(c1)Sc1ccccc1-n1cnnc1-2 | 137 |
